Article doi:10.1101/2021.01.25.428116
These are yes or no findings as the source states them, for the method shown. Binding seen in cells or lysates may run through a third protein. Some binding calls cover weakened binding; strength is not graded here. Sequences can lack the tags named with a protein.

T1: PIN2-YFP (Arabidopsis thaliana PIN-FORMED 2, C-terminally tagged with YFP), expressed in HEK293T cells (Arabidopsis thaliana) (UniProt Q9LU77)
T1 sequence: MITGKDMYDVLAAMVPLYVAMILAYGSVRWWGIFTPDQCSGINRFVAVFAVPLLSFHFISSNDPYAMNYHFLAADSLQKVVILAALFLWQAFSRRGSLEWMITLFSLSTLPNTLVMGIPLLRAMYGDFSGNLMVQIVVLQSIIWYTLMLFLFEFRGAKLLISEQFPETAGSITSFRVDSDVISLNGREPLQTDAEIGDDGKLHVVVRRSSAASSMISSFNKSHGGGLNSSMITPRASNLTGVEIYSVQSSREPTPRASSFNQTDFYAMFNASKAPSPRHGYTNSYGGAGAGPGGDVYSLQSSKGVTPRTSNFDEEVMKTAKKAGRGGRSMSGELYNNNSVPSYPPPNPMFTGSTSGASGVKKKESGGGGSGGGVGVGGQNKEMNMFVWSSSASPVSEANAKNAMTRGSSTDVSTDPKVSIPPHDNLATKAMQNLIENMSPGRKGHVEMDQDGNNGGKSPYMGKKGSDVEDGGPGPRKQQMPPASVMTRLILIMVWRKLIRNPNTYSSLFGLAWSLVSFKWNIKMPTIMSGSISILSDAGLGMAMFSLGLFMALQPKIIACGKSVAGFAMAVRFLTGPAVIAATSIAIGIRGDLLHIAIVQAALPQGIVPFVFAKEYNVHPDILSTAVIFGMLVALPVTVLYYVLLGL

T2: PIN2-YFP (Pro35S:PIN2-YFP), expressed in Nicotiana benthamiana leaf epidermal cells (Arabidopsis thaliana) (UniProt Q9LU77)
T2 sequence: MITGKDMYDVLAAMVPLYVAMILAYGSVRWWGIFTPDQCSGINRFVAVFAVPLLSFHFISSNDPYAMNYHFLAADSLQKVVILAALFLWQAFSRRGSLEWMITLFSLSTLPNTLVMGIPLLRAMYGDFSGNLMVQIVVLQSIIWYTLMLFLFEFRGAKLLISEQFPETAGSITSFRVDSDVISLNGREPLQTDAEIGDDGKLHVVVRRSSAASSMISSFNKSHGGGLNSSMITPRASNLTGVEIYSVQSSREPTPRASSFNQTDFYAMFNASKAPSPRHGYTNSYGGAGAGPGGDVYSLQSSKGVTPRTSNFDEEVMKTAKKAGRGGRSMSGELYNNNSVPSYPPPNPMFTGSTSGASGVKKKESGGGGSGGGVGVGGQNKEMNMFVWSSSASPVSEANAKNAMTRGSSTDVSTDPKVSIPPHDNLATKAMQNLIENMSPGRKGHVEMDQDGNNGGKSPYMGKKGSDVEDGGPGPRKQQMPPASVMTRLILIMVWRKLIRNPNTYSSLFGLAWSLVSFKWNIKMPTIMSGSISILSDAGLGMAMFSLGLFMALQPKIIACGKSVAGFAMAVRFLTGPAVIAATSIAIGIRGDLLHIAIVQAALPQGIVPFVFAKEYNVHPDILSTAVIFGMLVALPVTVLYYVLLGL


Key:
[1] = biological target: T1, PIN2-YFP (Arabidopsis thaliana PIN-FORMED 2, C-terminally tagged with YFP), expressed in HEK293T cells (Arabidopsis thaliana); test: FRET or BRET
[2] = biological target: T2, PIN2-YFP (Pro35S:PIN2-YFP), expressed in Nicotiana benthamiana leaf epidermal cells (Arabidopsis thaliana); test: FRET or BRET

Row | binding [1] | binding [2] | Binder
1 | binds |  | ABCB4-CFP (Arabidopsis thaliana ATP-binding cassette B4, C-terminally tagged with CFP), expressed in HEK293T cells (protein, UniProt O80725 1-1286) MASESGLNGDPNILEEVSETKRDKEEEEEVKKTEKKDEEHEKTKTVPFYKLFAFADSFDFLLMILGTLGSIGNGLGFPLMTLLFGDLIDAFGENQTNTTDKVSKVALKFVWLGIGTFAAAFLQLSGWMISGERQAARIRSLYLKTILRQDIAFFDIDTNTGEVVGRMSGDTVLIQDAMGEKVGKAIQLLATFVGGFVIAFVRGWLLTLVMLSSIPLLVMAGALLAIVIAKTASRGQTAYAKAATVVEQTIGSIRTVASFTGEKQAISNYNKHLVTAYKAGVIEGGSTGLGLGTLFLVVFCSYALAVWYGGKLILDKGYTGGQVLNIIIAVLTGSMSLGQTSPCLSAFAAGQAAAYKMFETIERRPNIDSYSTNGKVLDDIKGDIELKDVYFTYPARPDEQIFRGFSLFISSGTTVALVGQSGSGKSTVVSLIERFYDPQAGDVLIDGINLKEFQLKWIRSKIGLVSQEPVLFTASIKDNIAYGKEDATTEEIKAAAELANASKFVDKLPQGLDTMVGEHGTQLSGGQKQRIAVARAILKDPRILLLDEATSALDAESERVVQEALDRIMVNRTTVVVAHRLSTVRNADMIAVIHQGKIVEKGSHTELLKDPEGAYSQLIRLQEEKKSDENAAEEQKMSSIESFKQSSLRKSSLGRSLSKGGSSRGNSSRHSFNMFGFPAGIDGNVVQDQEEDDTTQPKTEPKKVSIFRIAALNKPEIPVLILGSISAAANGVILPIFGILISSVIKAFFQPPKKLKEDTSFWAIIFMVLGFASIIAYPAQTFFFAIAGCKLVQRIRSMCFEKVVHMEVGWFDEPENSSGTIGARLSADAATIRGLVGDSLAQTVQNLSSILAGLIIAFLACWQLAFVVLAMLPLIALNGFLYMKFMKGFSADAKKMYGEASQVANDAVGSIRTVASFCAEDKVMNMYSKKCEGPMKNGIRQGIVSGIGFGFSFFVLFSSYAASFYVGARLVDDGKTTFDSVFRVFFALTMAAMAISQSSSLSPDSSKADVAAASIFAIMDRESKIDPSVESGRVLDNVKGDIELRHVSFKYPARPDVQIFQDLCLSIRAGKTVALVGESGSGKSTVIALLQRFYDPDSGEITLDGVEIKSLRLKWLRQQTGLVSQEPILFNETIRANIAYGKGGDASESEIVSSAELSNAHGFISGLQQGYDTMVGERGIQLSGGQKQRVAIARAIVKDPKVLLLDEATSALDAESERVVQDALDRVMVNRTTIVVAHRLSTIKNADVIAVVKNGVIVEKGKHDTLINIKDGVYASLVQLHLTAAS
2 |  | binds | ABCB4-CFP (Pro35S:ABCB4-CFP), expressed in Nicotiana benthamiana leaf epidermal cells (protein, UniProt O80725 1-1286) MASESGLNGDPNILEEVSETKRDKEEEEEVKKTEKKDEEHEKTKTVPFYKLFAFADSFDFLLMILGTLGSIGNGLGFPLMTLLFGDLIDAFGENQTNTTDKVSKVALKFVWLGIGTFAAAFLQLSGWMISGERQAARIRSLYLKTILRQDIAFFDIDTNTGEVVGRMSGDTVLIQDAMGEKVGKAIQLLATFVGGFVIAFVRGWLLTLVMLSSIPLLVMAGALLAIVIAKTASRGQTAYAKAATVVEQTIGSIRTVASFTGEKQAISNYNKHLVTAYKAGVIEGGSTGLGLGTLFLVVFCSYALAVWYGGKLILDKGYTGGQVLNIIIAVLTGSMSLGQTSPCLSAFAAGQAAAYKMFETIERRPNIDSYSTNGKVLDDIKGDIELKDVYFTYPARPDEQIFRGFSLFISSGTTVALVGQSGSGKSTVVSLIERFYDPQAGDVLIDGINLKEFQLKWIRSKIGLVSQEPVLFTASIKDNIAYGKEDATTEEIKAAAELANASKFVDKLPQGLDTMVGEHGTQLSGGQKQRIAVARAILKDPRILLLDEATSALDAESERVVQEALDRIMVNRTTVVVAHRLSTVRNADMIAVIHQGKIVEKGSHTELLKDPEGAYSQLIRLQEEKKSDENAAEEQKMSSIESFKQSSLRKSSLGRSLSKGGSSRGNSSRHSFNMFGFPAGIDGNVVQDQEEDDTTQPKTEPKKVSIFRIAALNKPEIPVLILGSISAAANGVILPIFGILISSVIKAFFQPPKKLKEDTSFWAIIFMVLGFASIIAYPAQTFFFAIAGCKLVQRIRSMCFEKVVHMEVGWFDEPENSSGTIGARLSADAATIRGLVGDSLAQTVQNLSSILAGLIIAFLACWQLAFVVLAMLPLIALNGFLYMKFMKGFSADAKKMYGEASQVANDAVGSIRTVASFCAEDKVMNMYSKKCEGPMKNGIRQGIVSGIGFGFSFFVLFSSYAASFYVGARLVDDGKTTFDSVFRVFFALTMAAMAISQSSSLSPDSSKADVAAASIFAIMDRESKIDPSVESGRVLDNVKGDIELRHVSFKYPARPDVQIFQDLCLSIRAGKTVALVGESGSGKSTVIALLQRFYDPDSGEITLDGVEIKSLRLKWLRQQTGLVSQEPILFNETIRANIAYGKGGDASESEIVSSAELSNAHGFISGLQQGYDTMVGERGIQLSGGQKQRVAIARAIVKDPKVLLLDEATSALDAESERVVQDALDRVMVNRTTIVVAHRLSTIKNADVIAVVKNGVIVEKGKHDTLINIKDGVYASLVQLHLTAAS
